PubChem BioAssay AID1508587 | Peter MacCallum Cancer Centre | 2020

- Test: 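Knockdowns that add to vemurafenib's cut in melanoma glycolysis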 (follow-up of hits)
- System: human WM266.4 melanoma cells with a BRAF V600 mutation
- Reagent: single siRNA against human genes, 25 nM
- Timing: 96 h
- Treatment: vemurafenib 300 nM (about IC25), given 48 h after transfection for 48 h
- Read-out: 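Per-cell lactate from absorbance divided by DAPI nucleus counts, compared with and without vemurafenib, relative to non-targeting siRNA, mean of 2 replicates; nuclear counts also give cell number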
- Reading the numbers: lactate per cell, drug vs no drug: higher = less drug-induced drop in lactate per cell
- Active means: 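a duplex is active when its lactate-per-cell ratio with versus without drug falls under 0.55, i.e. 2 SD below non-targeting; a gene is confirmed if 2 or more of 4 duplexes pass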
The whole screen tested about 1,600 reagents; this is a random part of them. 623 of all reagents (39%) were called active. 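Calls are for each duplex; lactate ratios contain extreme outliers.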 A number with no mark means an inactive call. Reagents against one gene are numbered here. Further read-outs or replicates are left out here.

For KCNA4 (potassium voltage-gated channel subfamily A member 4) #1, what does the deposit list?
lactate per cell, drug vs no drug: 0.4 (active)

How did the screen score KCNA4 (potassium voltage-gated channel subfamily A member 4) #2?
lactate per cell, drug vs no drug: 0.51 (active)

Which result is listed for KCNA4 (potassium voltage-gated channel subfamily A member 4) #3?
lactate per cell, drug vs no drug: 0.53 (active)

With KCNA4 (potassium voltage-gated channel subfamily A member 4) #4, how do the results read?
lactate per cell, drug vs no drug: 0.62

What is on record for TUBB2A (tubulin beta 2A class IIa) #1?
lactate per cell, drug vs no drug: 1.39

How did the screen score TUBB2A (tubulin beta 2A class IIa) #2?
lactate per cell, drug vs no drug: 0.69

Which result is listed for TUBB2A (tubulin beta 2A class IIa) #3?
lactate per cell, drug vs no drug: 0.62

How did the screen score TUBB2A (tubulin beta 2A class IIa) #4?
lactate per cell, drug vs no drug: 0.74

Which result is listed for CCDC159 (coiled-coil domain containing 159) #1?
lactate per cell, drug vs no drug: 0.56

With CCDC159 (coiled-coil domain containing 159) #2, what was measured?
lactate per cell, drug vs no drug: 0.62

What is on record for CCDC159 (coiled-coil domain containing 159) #3?
lactate per cell, drug vs no drug: 0.54 (active)

Which result is listed for CCDC159 (coiled-coil domain containing 159) #4?
lactate per cell, drug vs no drug: 0.86

How did the screen score ATL3 (atlastin GTPase 3) #1?
lactate per cell, drug vs no drug: 0.61

How did the screen score ATL3 (atlastin GTPase 3) #2?
lactate per cell, drug vs no drug: 0.62

What is on record for ATL3 (atlastin GTPase 3) #3?
lactate per cell, drug vs no drug: 0.61

With ATL3 (atlastin GTPase 3) #4, what was measured?
lactate per cell, drug vs no drug: 0.72

For FAM217B (family with sequence similarity 217 member B) #1, how do the results read?
lactate per cell, drug vs no drug: 0.68

With FAM217B (family with sequence similarity 217 member B) #2, what does the deposit list?
lactate per cell, drug vs no drug: 0.76

What did the screen give for FAM217B (family with sequence similarity 217 member B) #3?
lactate per cell, drug vs no drug: 0.56

With FAM217B (family with sequence similarity 217 member B) #4, what does the deposit list?
lactate per cell, drug vs no drug: 0.68

What is on record for MLEC (malectin) #1?
lactate per cell, drug vs no drug: 0.64

Which result is listed for MLEC (malectin) #2?
lactate per cell, drug vs no drug: 0.7

With MLEC (malectin) #3, what was measured?
lactate per cell, drug vs no drug: 0.64

For MLEC (malectin) #4, what does the deposit list?
lactate per cell, drug vs no drug: 0.77

What is on record for LRFN2 #1?
lactate per cell, drug vs no drug: 0.49 (active)

For LRFN2 #2, how do the results read?
lactate per cell, drug vs no drug: 1.03

With LRFN2 #3, what was measured?
lactate per cell, drug vs no drug: 0.38 (active)

With LRFN2 #4, what was measured?
lactate per cell, drug vs no drug: 0.84
